Test system: E. coli strain JP750
Type: cell-based, Escherichia coli
Conditions: LB, 30° C., FIG. 2
Description: The dose-dependent cytological profiles for the various classes of antibiotics was determined. In general, a series of cultures of the appropriate strain were grown in LB at 30° C. until the cultures reached a density of approximately 2×10^8 cells/ml, at which point the compound of interest was added so that the final concentrations ranged from 0 to 200 μg/ml. For each compound, samples representing ⅕×, 1× and 5× the MIC were examined. Samples were taken at various times after addition of drug (ranging from 0.2 to 3 hours). The cells were stained with FM 4-64 (1 μg/ml) to visualize the cell membranes and DAPI (5 μg/ml) to visualize the chromosome (Pogliano et al. (1999) Mol. Microbiol. 31:1149). Samples can also be incubated in very small volumes (10 μl or less) with similar results.
Images of each stain and any fluorescently-tagged fusion protein present in the strain were then captured using a high resolution microscope. Cell length and width, chromosome length and shape, distance of the chromosome from each cell pole, the number of chromosomes per cell, and the presence and distribution of GFP (or GFP fusions) present within the cells were measured.
In the specific examples described below, E. coli strain JP750 was grown for 2 hours at 30° C. in the presence of various concentrations of nalidixic acid, chloramphenicol, or cephalexin, ranging from 0 to 30 μg/ml. […]

## CC1=C(C(=O)O)N2C(=O)[C@@H](NC(=O)[C@H](N)c3ccccc3)[C@H]2SC1 [cephalexin]
  SeqA-GFP foci distribution: multiple SeqA-GFP foci that are spread uniformly throughout the cell

Source: patent US20130324437A1, “METHOD FOR IDENTIFYING ANTIMICROBIAL COMPOUNDS AND DETERMINING ANTIBIOTIC SENSITIVITY” (THE REGENTS OF THE UNIVERSITY OF CALIFORNIA, priority 2010, published 2013)
